Out of some 53,000 sequences screened, about 3,700 (7%) were called active.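 Rule for the calls: active = gene knockdowns whose robust z-score for IL-1 alpha signal is at least 2 or at most -2, so actives lie on both sides; inactive = the rest.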 The list shows a part of the results.

This test is described as follows: Components of the Cytosolic LPS Sensing Pathway: Gene Identification via Genome-wide siRNA Screen.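 Note: robust z of the log signal after scaling to non-targeting control siRNA wells of the plate.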 The settings on record: RAW264.7 macrophages, IL-1a HTRF, actives lie on both sides, screened at 100 nM (by protocol), cells primed 5 h with Pam3CSK4 first. In short, it runs like this: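 IL-1a HTRF of supernatants after 24 hour LipidA transfection of Pam3CSK4-primed (5 hours) RAW264.7 cells, 48h post-siRNA transfection (100 nM). Scores: percent of plate negative-control median, then log-based robust z-score.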
Regarding GUCCCAGUACCUCUUUCUUTT against Vmn1r26, the z-score is inactive: -0.739.
The same measure for “GCCUGAAUCUUUAAUAAUCTT against D630028G08Rik”: inactive: 0.479.
Under CCUUCAAUCAUGUUCUAACTT against Tmem229a stands inactive: -0.504.
Regarding GGAAUGAAAUCAAACUUGATT against Slc35g3, the z-score is inactive: 0.66.
The same measure for GGUUCUUUUUGAAACAGUUTT against Klhl11: inactive: 0.531; for GGAAUGGUUUUUGAAGAGGTT against Rhox2a: inactive: -0.589; for GGCAAAGAUAAAAUGCUGATT against Pclaf: inactive: 0.732.
As for GGAUGUCAGUGUUGCAAUGTT against Olfr954, the z-score is inactive: 0.191.
The same measure for CGACAUUAGAGAAAGUCAUTT against Hyou1: inactive: 0.0878; for GGCUACAACCAAAUCUUCATT against Papln: inactive: 0.873.
On to GGGAGAUAUGCAAUGAAUATT against Creb5, for which the z-score was inactive: -1.34.
Under GCGUGCUACCUGAAUAAGATT against H2bu2 stands inactive: -0.303; under GGAGAAUUUGGAGGUUUUGTT against Rbbp4, inactive: 1.82.
Under GCAUGAAGGUCGACUACGATT against Clk3 stands inactive: -1.14; under GGUGGAAUCGUUUUGCUGUTT against Col15a1, inactive: 0.155.
Under GGUCUUUUACAAAAUUCCCTT against Has3 stands inactive: -0.509; under GCAGCAUAUGAACACAAUATT against Ccdc186, inactive: 0.578.
GGCUAAAACAGGAAAUCUGTT against Mip: the z-score is inactive: -0.398.
Under GGAUAUACAUCUGAAGAUGTT against Mphosph8 stands inactive: 0.242; under GGCCACAAAGACUCUGUGATT against Aamp, active: -2.25; under CGAGUUAGCCUUCAUCCCUTT against Islr, inactive: -0.409.
The same measure for GGACAUUUUUAUGCACAAUTT against Il1rl2: inactive: 1.76; for GGCCAUGGAGAAGUACAACTT against Dynll2: inactive: 0.986; for GGAGCUAAUCGAGAAAAUGTT against Arl8a: inactive: -0.434.
As for GGGACGCAGUUUUCCGAUGTT against Nkx2-3, the z-score is inactive: 0.73.
The same measure for GGCAAAGAUAAUAAAGCUATT against Xpo1: inactive: -0.967; for GGGAUGGAUUUAGAUAUAATT against Ier3ip1: inactive: 0.623.
The same measure for GGUCAAACAAGAAACAGUUTT against Prdm1: inactive: 0.417.
In the case of CCAUCUUGACAUCUCGUGUTT against Olfr592, the z-score is inactive: -1.9.
Under GGAAAGGGCGGUUCAAAAGTT against Cacnb1 stands inactive: 0.234; under GGGAGAUCUCCAACACCAATT against Dipk1b, inactive: -1.02; under GGGACUGCUCUUUUCUCUCTT against Rabif, inactive: 0.354.
The same measure for GGAACAGAAGAAAAAACACTT against Ftsj3: inactive: 1.19.
The same measure for GGGUUAUUCAAGAAAAGCATT against Stip1: inactive: -0.162; for CGACAGAGUUAAAUACUAGTT against Tango2: inactive: -0.123; for CCUCAAUGGGUUUGUUCAATT against Kcns3: inactive: 1.86.
For GGAAAUGGAAGAGCAAAUUTT against Nol11, the z-score is inactive: 0.836.
As for GGAAAUGGCUAUUGAUAUCTT against Actl6b, the z-score is inactive: 0.126.
The same measure for CCCUUUCGAGGUGGUAAAATT against Slc25a21: inactive: 0.11; for “GCAUCUGGAAUUAUGGGUCTT against 2310030G06Rik”: inactive: 0.284; for GGCUUUUCCAAGACCUUUCTT against Awat2: inactive: 0.819.
The same measure for GCUGGGUUAUGAGAUUUCUTT against Tns2: active: 2.26; for CCUCGGUCAGAUUCCUGAUTT against Phpt1: inactive: 0.101; for GGAAAUUGGAGAUUUUUCCTT against Ccdc54: inactive: -1.02.
Under GAUGUCCUUCACCUUUGCCTT against Atp5d stands inactive: -1.9; under GCCCAGGUCUAAUGUCUAATT against Tac4, inactive: 0.234; under GGGCUCAUGGCUUUGUUUUTT against Ciao2b, inactive: 0.215.
GGUAGAGAACCAUUUGCUGTT against Dtnbp1: the z-score is inactive: -0.376.
The same measure for CGAAUGGCAUACAAUAACCTT against C1qtnf7: inactive: 0.278; for UAGAAUUGAUUGAGGACUCTT against Ly6c1: inactive: 0.602; for GGGACUUUGGUCAAUAAUGTT against Tcf19: inactive: 0.247.
The same measure for CCAGCAUUGAUAGACAGAUTT against Fam234a: inactive: 0.836.
Under “GGAUUUAAUGUACUAUGUGTT against 2210408I21Rik” stands inactive: -1.21.
Consider GGAAUGUGUUCCAUAAUUUTT against Syn2, for which the z-score was inactive: -0.201.
For the sequence CCCACUAAAAUCCUAUCUCTT against Ggta1, the z-score is active: -2.57.
The same measure for GGCCUAUCUUCCCAGGAAATT against Mapk1: inactive: 0.969; for GGUCCAAGUUACAGCAAAATT against Vmn1r80: inactive: 0.989; for GGAGCUGGAUUCGACGUGATT against Cacna1c: inactive: -0.775.
Under GGAAAUGUGGGAGAAAAUATT against H2-M1 stands inactive: -1.36; under GGAUGAAGAUGUGUCAAUATT against Api5, inactive: 0.889.
In the case of GGUCUGUUCUGUACUGAAGTT against Pde4dip, the z-score is inactive: -0.0657.
The same measure for GGGAAUUUAAUUUUUCGUGTT against Sfn: inactive: -0.642; for GGACUGAUUGCUUUAGUAATT against Olfr1184: inactive: -0.381; for GGUGCUGAUUGACCUAACATT against Wdtc1: active: -2.24.
The same measure for GGGUCCUGAUAAUGUCCUATT against Tlr1: inactive: 1.61; for GGAUCAGAUAAAAUACCAATT against Oas2: inactive: 0.997.
On to “GGUCACAACCAUGAAGAGCTT against 1700093K21Rik”, for which the z-score is inactive: -0.619.
Under “GCAAUCUUAGGUUCAUGGUTT against Vmn2r-ps105” stands inactive: 0.511; under GGCCAGCUAGAGUUAUAUGTT against Foxred2, inactive: 0.58; under GCUGUCAUUCUGUGGUCCATT against Olfr538, inactive: -0.346.
The same measure for GCGGAGAGUUAAUGUUUCUTT against Cbx3: inactive: 0.188; for GGGAUCUUCGGAACUUAGUTT against Pde1a: inactive: 0.554.
The same measure for GGAUUUUCGGGACUCUUUATT against Sfmbt1: inactive: 1.17; for GGAGAACGUGGUACAAAGUTT against Sncg: inactive: -1.27; for GCGUGUCACACUAUGAGUUTT against Vwa1: inactive: 0.626.
On to GGUGGUAGAACUGUUAAAATT against Klc2, for which the z-score is inactive: 0.311.
In the case of CGGGCAAUGUCAGAUUGUGTT against Vmn1r75, the z-score is inactive: 1.41.
For GGAAUUUGAGAUCUACACUTT against Zfp398, the z-score was inactive: 1.59.
Under GGGUUGGAAGCAAUUGCUGTT against Ubtd1 stands inactive: 0.544; under GGAGUCUCCUAAAAAAGGATT against Tcof1, inactive: 0.79; under GGCAUUGAAGCAUCUGUUCTT against Cd180, inactive: -1.7.
Under GGAAGUCUUGAGCCUGCUUTT against Folr2 stands inactive: -0.555; under CGAUCUGAGUUUUAUCUCUTT against Nrsn2, inactive: 1.78; under GCUCGAUAUCACAGAGAUUTT against Ces5a, inactive: -0.177.
Under GGGUCAUCACCAUCAUGUCTT against Slc22a5 stands inactive: -0.985.
Take GCCGGGACCAUGAUUAUAGTT against Rbm10: the z-score was active: 2.7.
The same measure for CCUAGGUUGUCGCCAGGUUTT against Nkx2-3: inactive: 0.722; for GGAUUACCAAUCGGCCAAGTT against Egr3: inactive: 1.25; for CGAAGCAUUAGAUUUUGACTT against Mcm9: inactive: 0.177.
Under GGCCUUCAACGAUUCAAUCTT against Olfr770 stands inactive: 1.35; under GCUACAGCAGACAUAGAAATT against Sparcl1, inactive: 0.0109; under GGGAAUUAGCCAUUAUAACTT against Pcdhb11, inactive: 0.0338.
The same measure for GGAAAAUCAUUUCAUCGUGTT against Aurkc: inactive: 0.489.
With GGCUGUUCAGAAGUUCACGTT against Saa3, the z-score is inactive: -1.25.
The same measure for GGACUUUAGCAAAAUCGGCTT against Gm5535: inactive: 0.137.
Under GGGACUCUCAAAAUUCACUTT against Bnc2 stands inactive: 0.423; under GGUUGGCACAACUGUGUACTT against Cr2, inactive: -0.0754.
Under GGAUACGAGACAAUGAGAATT against Kctd2 stands inactive: -0.404; under CCUGUUGGACCUUAUUCCCTT against Plbd1, inactive: 0.694; under GGAACAAGAGAAGCAAAUATT against Ifitm7, inactive: -0.278.
For the sequence GGUAUUUGAAGAUGUCAAATT against Abcd1, the z-score is inactive: -0.479.
Under GGUUCACUUCAGUGUAUAUTT against Morf4l1 stands inactive: -0.00162; under GGUCAUAAGUUUCUCAUCUTT against Gdpd1, inactive: -0.476; under GGAUUAGACCUAUGGUGCUTT against Dpp6, inactive: 0.77.
Turning to GGUGUUUUUGAUGAGAGUGTT against Ints5, the z-score is inactive: 0.612.
GGAAUGAAUAAGUAGAGACTT against Unc5cl: the z-score is inactive: -0.137.
Under GGCUUUACAAAUCUUGUCUTT against Gpx6 stands inactive: -1.31.

(Values after PubChem BioAssay AID1508600 (Functional Genomics Laboratory (NCATS/FGL), 2020).)
